Results taken from paper PMC3625234, “The L-Cysteine Desulfurase NFS1 Is Localized in the Cytosol where it Provides the Sulfur for Molybdenum Cofactor Biosynthesis in Humans” (PLoS ONE, 2013).
These are yes or no findings as the source states them, for the method shown. For some assays here: Binding seen in cells or lysates may run through a third protein. Some binding calls cover weakened binding; strength is not graded here. For some assays here: Where a sequence is shown, tags or fusion partners need not be part of it. Values belong to the molecule of their own block, whether it stands above or below them.

By UniProt entry, the sequences of proteins in these tests, tags left out. Where a name states a change or a piece, a line headed by the entry shows the natural chain unless it says otherwise. Residues count along the entry.
UniProt Q9HD34: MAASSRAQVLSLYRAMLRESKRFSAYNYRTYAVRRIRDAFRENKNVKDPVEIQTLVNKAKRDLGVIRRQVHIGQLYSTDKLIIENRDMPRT
UniProt Q9Y697, residues 56-457: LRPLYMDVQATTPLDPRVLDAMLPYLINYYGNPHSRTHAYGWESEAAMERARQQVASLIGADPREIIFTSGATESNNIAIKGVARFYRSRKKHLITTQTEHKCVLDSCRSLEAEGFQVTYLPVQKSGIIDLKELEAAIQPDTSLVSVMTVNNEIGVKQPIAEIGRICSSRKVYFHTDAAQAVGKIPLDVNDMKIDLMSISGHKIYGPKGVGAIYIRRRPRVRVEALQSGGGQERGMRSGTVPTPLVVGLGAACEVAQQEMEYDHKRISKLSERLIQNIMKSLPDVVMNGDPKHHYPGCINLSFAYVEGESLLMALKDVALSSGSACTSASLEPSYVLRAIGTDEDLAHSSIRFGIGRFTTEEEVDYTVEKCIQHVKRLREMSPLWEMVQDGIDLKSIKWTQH
UniProt P02769, residues 25-607: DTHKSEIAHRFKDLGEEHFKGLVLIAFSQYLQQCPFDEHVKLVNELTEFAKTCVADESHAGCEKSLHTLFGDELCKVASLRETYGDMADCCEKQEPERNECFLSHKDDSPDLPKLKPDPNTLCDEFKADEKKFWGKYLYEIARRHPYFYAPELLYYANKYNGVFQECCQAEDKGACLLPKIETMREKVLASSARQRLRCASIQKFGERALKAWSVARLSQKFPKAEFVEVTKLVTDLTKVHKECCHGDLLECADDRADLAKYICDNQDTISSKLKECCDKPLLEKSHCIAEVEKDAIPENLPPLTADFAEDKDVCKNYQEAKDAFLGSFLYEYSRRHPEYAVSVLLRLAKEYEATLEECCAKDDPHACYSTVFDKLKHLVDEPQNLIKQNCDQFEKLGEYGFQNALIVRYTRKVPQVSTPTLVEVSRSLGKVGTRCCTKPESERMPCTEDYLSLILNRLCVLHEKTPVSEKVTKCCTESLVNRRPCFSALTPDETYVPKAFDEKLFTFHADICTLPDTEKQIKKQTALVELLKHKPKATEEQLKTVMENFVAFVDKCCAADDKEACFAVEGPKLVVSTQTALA

Experiments:
[1] = biological target: ISD11-EGFP^1–157 fusion (human) (UniProt Q9HD34); test: split reporter; split-EGFP complementation (EGFP 1-157 and EGFP 158-238, both fused C-terminally) in transiently cotransfected HeLa cells, fixed 12 h after transfection, confocal microscopy
[2] = biological target: T1, MOCS3-EGFP^1–157 fusion (human) (UniProt O95396); test: as above
T1 sequence: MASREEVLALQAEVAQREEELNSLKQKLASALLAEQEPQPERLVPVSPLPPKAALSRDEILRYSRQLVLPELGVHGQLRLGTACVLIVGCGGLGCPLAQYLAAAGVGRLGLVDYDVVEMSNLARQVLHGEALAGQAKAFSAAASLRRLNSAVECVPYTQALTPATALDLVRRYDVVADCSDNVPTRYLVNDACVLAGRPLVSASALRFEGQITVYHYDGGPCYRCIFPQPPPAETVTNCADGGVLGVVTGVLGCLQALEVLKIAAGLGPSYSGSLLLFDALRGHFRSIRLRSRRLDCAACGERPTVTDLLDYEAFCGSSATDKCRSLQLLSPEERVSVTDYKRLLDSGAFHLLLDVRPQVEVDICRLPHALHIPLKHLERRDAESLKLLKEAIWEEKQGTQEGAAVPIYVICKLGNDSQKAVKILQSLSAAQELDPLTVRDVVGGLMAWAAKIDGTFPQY

[3] = biological target: NFS1Δ1-55 (purified) (human) (UniProt Q9Y697); test: co-purification of co-expressed proteins; His6-NFS1Δ1-55 expressed in the presence of ISD11 in E. coli BL21(DE3) and purified as a complex
[4] = biological target: T2, MOCS3 purified after expression in Sf9 cells (human) (UniProt O95396); test: SPR; Biacore T200, CM5 chip, target immobilized by amine coupling (400–600 RU), 25°C, 30 µL/min, 20 mM phosphate, 150 mM NaCl, 0.005% Tween 20, pH 7.4; analytes 0.31–10 µM; global fit, 1:1 binding, mean of 3 measurements; both purified
T2 sequence: T1 sequence

binding [1]: binds | binding [2]: binds
Molecule: NFS1Δ1-55-EGFP^158–238 fusion (from UniProt Q9Y697 56-457) (domain or fragment)

binding [3]: binds
Molecule: ISD11 (expressed from pACYCDuet1) (from UniProt Q9HD34 1-91)

binding [4]: no binding
Molecule: bovine serum albumin (from UniProt P02769 25-607)

binding [2]: binds
B1: MOCS3-EGFP^1–157 fusion (enzyme, UniProt O95396 1-460)
chain: T1 sequence
